# Library screen at single concentrations

The chains behind the UniProt entries cited, without tags or fusion partners. Residues count along the entry.
UniProt P9WNZ1, whole entry: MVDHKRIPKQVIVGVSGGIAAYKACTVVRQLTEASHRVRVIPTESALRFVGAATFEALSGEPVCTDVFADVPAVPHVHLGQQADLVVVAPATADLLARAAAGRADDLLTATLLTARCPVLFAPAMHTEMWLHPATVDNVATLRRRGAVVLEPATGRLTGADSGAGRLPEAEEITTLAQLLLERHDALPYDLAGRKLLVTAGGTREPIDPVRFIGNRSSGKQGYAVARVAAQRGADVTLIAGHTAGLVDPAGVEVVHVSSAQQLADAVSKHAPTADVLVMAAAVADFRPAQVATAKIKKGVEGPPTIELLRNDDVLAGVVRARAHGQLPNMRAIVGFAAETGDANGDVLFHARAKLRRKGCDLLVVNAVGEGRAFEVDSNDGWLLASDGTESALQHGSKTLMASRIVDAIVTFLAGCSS
UniProt P9WFT3, whole entry: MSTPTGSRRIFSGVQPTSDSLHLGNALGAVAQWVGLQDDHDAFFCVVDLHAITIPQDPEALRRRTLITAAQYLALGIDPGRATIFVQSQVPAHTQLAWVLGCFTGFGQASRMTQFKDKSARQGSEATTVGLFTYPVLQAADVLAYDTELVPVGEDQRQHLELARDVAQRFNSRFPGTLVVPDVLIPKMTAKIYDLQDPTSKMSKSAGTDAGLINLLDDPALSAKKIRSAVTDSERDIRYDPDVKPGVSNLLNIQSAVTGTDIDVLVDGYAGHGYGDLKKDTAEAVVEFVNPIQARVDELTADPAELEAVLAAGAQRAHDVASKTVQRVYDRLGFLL
UniProt P9WPC5, whole entry: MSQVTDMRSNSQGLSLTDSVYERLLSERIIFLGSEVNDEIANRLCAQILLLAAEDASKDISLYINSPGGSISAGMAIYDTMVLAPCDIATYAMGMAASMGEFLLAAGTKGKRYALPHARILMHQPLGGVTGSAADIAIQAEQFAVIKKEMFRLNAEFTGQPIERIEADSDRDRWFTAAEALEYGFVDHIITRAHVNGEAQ
UniProt P9WPC3, whole entry partner: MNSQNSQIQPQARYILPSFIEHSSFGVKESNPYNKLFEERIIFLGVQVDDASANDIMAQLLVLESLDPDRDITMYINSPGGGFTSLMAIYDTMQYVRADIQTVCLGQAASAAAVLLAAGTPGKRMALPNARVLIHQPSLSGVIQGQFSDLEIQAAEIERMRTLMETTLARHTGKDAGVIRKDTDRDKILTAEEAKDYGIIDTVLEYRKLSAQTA
UniProt A4I591, 1-473: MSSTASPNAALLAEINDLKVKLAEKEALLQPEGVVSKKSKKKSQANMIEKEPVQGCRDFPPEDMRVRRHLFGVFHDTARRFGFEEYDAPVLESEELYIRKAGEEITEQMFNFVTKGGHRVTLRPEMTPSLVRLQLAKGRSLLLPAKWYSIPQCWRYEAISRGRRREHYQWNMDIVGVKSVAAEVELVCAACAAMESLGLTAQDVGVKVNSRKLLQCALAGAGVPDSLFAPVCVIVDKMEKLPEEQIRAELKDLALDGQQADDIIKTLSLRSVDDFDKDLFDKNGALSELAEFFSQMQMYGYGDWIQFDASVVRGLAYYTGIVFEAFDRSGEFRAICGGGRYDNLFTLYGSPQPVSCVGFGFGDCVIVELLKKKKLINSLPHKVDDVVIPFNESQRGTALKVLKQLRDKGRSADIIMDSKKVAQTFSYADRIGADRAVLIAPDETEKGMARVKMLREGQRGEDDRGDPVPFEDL
UniProt Q4DA54, 1-478: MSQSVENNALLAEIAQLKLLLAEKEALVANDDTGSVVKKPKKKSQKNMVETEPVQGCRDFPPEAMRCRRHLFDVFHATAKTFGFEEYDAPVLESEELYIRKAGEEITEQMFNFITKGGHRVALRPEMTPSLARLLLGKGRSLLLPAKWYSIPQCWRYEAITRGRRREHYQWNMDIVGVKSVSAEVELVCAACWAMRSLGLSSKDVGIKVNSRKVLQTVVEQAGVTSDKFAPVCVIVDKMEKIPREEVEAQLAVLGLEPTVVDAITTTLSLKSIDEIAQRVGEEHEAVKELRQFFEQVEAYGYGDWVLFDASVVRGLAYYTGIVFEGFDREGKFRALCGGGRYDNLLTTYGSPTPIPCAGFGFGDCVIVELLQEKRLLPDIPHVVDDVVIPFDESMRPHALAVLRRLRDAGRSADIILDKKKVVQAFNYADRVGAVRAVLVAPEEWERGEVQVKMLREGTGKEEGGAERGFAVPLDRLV

CoaBC: 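Coenzyme A biosynthesis protein CoaBC, Mycobacterium tuberculosis (UniProt P9WNZ1). Enzyme assay of CoaBC with a phosphate dye (Biomol Green) read at 650 nm. Concentration: 30 µM. Higher reads as stronger inhibition, judged from the few compounds that gave an IC50. Most strong results did not repeat in a second test. Size under these conditions: about 67,000 compounds, about 40 of them at 50% or above in at least one test.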
MtTrpRS: 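Tryptophan-tRNA ligase, Mycobacterium tuberculosis (UniProt P9WFT3). Enzyme assay of tryptophanyl-tRNA synthetase; the read-out is not stated. Compounds at 10 µM. Higher most likely means stronger inhibition; the record gives no direction and few retests gave an IC50. Of about 65,000 compounds tested this way, about 64 (0.098%) reached 50% or more in at least one test.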
ClpP1P2: 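ClpP1P2, Mycobacterium tuberculosis (UniProt P9WPC5 and UniProt P9WPC3). Protease assay of ClpP1P2, read by the AMC dye that it sets free. Compounds at 50 µM. Higher reads as stronger inhibition, judged from the few compounds that gave an IC50. Most other retested compounds had strongly negative values. About 69,000 compounds were tested under these conditions; 0.015% (about 10) showed 50% or more at least once.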
LiHisRS: 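Enzyme assay of histidyl-tRNA synthetase; the read-out is not stated. Target: Histidine-tRNA ligase, Leishmania infantum (UniProt A4I591). Compounds at 30 µM. Higher reads as stronger inhibition (inferred: compounds with an IC50 in retests scored well above the rest). The assay is labelled LdHisRS but filed under L. infantum. About 69,000 compounds were tested under these conditions; 0.6% (about 410) showed 50% or more at least once.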
TcHisRS: 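Enzyme assay of histidyl-tRNA synthetase; the read-out is not stated. Target: Histidine-tRNA ligase, Trypanosoma cruzi CL Brener (UniProt Q4DA54). Concentration: 30 µM. Direction is inferred from retests: higher values go with stronger inhibition. Size under these conditions: about 69,000 compounds, about 31 of them at 50% or above in at least one test.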

Results are given as percent effect.
The record does not define 0% and 100%; most values in the screen are far below 50% and negative numbers occur (in some assays of this library far below -100).
Compounds were drawn at random from those tested, without regard to their results.
Two or more numbers in one place are separate tests of the same structure; such repeats can differ widely.
A dash means the value is not listed here; it may have been measured.

| # | compound | CoaBC | MtTrpRS | ClpP1P2 | LiHisRS | TcHisRS |
|---|---|---|---|---|---|---|
| 1 | `CCn1ccc(C(=O)N2CCCC2(C)c2nc(C)cc(N(C)C)n2)n1` (centres undefined) | 0.1239% | - | -6.363% | 4% | 0.7491% |
| 2 | `Cc1cc(CN2CCCn3nc(CCC(=O)O)cc3C2)ccc1F` | -1.327% | -1.377% | 2.005% | 13.6% | 2.513% |
| 3 | `Cc1nc(NCc2noc(C3CCCO3)n2)c2sccc2n1` (centres undefined) | 7.744% | 7.097% | 2.775% | 13.83% | 5.051% |
| 4 | `Cc1noc(C)c1CN1C[C@@H]2CCCO[C@@H]2[C@H](NS(C)(=O)=O)C1` | 6.515% | 2.604% | -4.439% | 25.71% | 4.902% |
| 5 | `O=C(CN1CC(c2nc(-c3ccco3)no2)C1)NCc1ccc(F)cc1` | 6.163% | 0.08937% | 2.772% | 22.67% | 1.587% |
| 6 | `Cc1ccccc1-n1cc(CNC(=O)CC2C(=O)NCCN2C)cn1` (centres undefined) | 4.426% | 1.586% | -18.94% | 13.11% | 8.155% |
| 7 | `CSc1ccccc1CCC1CCS(=O)(=O)C1` (centres undefined) | 0.4348% | -3.757% | -0.08599% | 3.665% | -13.37% |
| 8 | `CCc1noc(CN(CC)Cc2cc3ccc(F)cc3[nH]c2=O)n1` | 0.2165% | 0% | 3.554% | 14.75% | 7.2% |
| 9 | `O=C(C1CCCN(Cc2ccccc2)C1)N1CCc2sccc2C1` (centres undefined) | 4.218% | -2.855% | -12.3% | 4.255% | 8.671% |
| 10 | `CC(C)OCCC(=O)N(C)CCCc1cc(-c2ccccc2)no1` | 5.059% | -5.734% | 14.72% | -80% | -2.682% |
| 11 | `COc1cccc(N2CCN(C(=O)C(O)c3ccccc3Cl)CC2=O)c1` (centres undefined) | 4% | -1.649% | -9.716% | 11.32% | 4.167% |
| 12 | `CS(=O)(=O)N1Cc2cnn(CC3CC3)c2C(COCC2CC2)C1` (centres undefined) | 9.627% | -4.348% | -19.7% | 10.81% | -3.483% |
| 13 | `Cc1nc(C)n(CC2CCCN(Cc3nnc(C4CC4)o3)C2)n1` (centres undefined) | -5.372% | 1.231% | 5.318% | 0.8929% | 6.667% |
| 14 | `CN(C)c1ncc(CNC(=O)Nc2ccccc2F)n1C` | 0.2012% | -4.004% | -10.75% | 12.82% | 6.18% |
| 15 | `CCOc1cccc(C(C)NC(=O)N2CCC3(CC2)OCCO3)c1` (centres undefined) | 1.148% | 3.291% | 2.396% | 0% | 5.128% |
| 16 | `O=C([C@@H]1COC[C@H]2CN(C3CCOCC3)C[C@H]21)N1CCOCC1` | 2.581% | -2.509% | -10.63% | 30.56% | 8.458% |
| 17 | `Cc1cnn(CCC(=O)N2CCOC(c3nc(C(C)(C)C)n[nH]3)C2)c1` (centres undefined) | -6.751% | 3.033% | -8.644% | -2.885% | 1.626% |
| 18 | `COCc1ncc(CN2CCN(C)C(=O)C2C)cn1` (centres undefined) | 2.233% | 0.06345% | -0.1027% | 17.02% | 12.14% |
| 19 | `CCc1cc(=O)[nH]c(-c2ccc(NCCC(C)O)nc2)n1` (centres undefined) | 5.368% | -1.34% | -0.3929% | 9.333% | 2.646% |
| 20 | `CCc1nc(CN(C)C2CCN(CCCOc3ccccc3)C2)no1` (centres undefined) | -2.413% | 6.19% | -22.74% | 0% | 1.425% |
| 21 | `CN(Cc1ccc(CCC(C)(C)O)cc1)Cc1cccc(O)c1` | -2.558% | 0.315% | 0.6752% | 16.39% | 3.03% |
| 22 | `CCCC(C)NC(=O)CCN1C(=O)CCc2cc(F)ccc21` (centres undefined) | 1.08% | 1.343% | -11.32% | 0% | 6.122% |
| 23 | `Cn1cc(C2CCCN2Cc2csc(-c3ccccc3)n2)cn1` (centres undefined) | 4.462% | -4.126% | -23.94% | 28.81% | 22.86% |
| 24 | `CCc1cnc(C)nc1NCCC(=O)N1CCC(C)CC1` | -4.405% | -2.972% | -9.743% | 15.07% | 5.941% |
| 25 | `Cc1c(Br)cnn1C(C)C(=O)Nc1nncs1` (centres undefined) | 5.051% | 1.083% | 8.843% | 15.05% | 5.699% |
| 26 | `c1ccc(OCCN2CCC(n3cncn3)CC2)cc1` | 9.091% | 8.517% | -1.811% | 20.41% | 7% |
| 27 | `CC(C)CCC(=O)NC(C)c1nnc2n1CCCCC2` (centres undefined) | 1.054% | 4.329% | -6.831% | 9.375% | 2.662% |
| 28 | `O=S1(=O)CCCN1Cc1coc(-c2cccs2)n1` | 8.439% | 0.3791% | 9.373% | 16.35% | -17.07% |
| 29 | `Cc1ccc(C)c2c(C)c(C(=O)NCC[S+](C)[O-])[nH]c12` (centres undefined) | 7.126% | -4.144% | -8.851% | 9.859% | 7.692% |
| 30 | `COCCCN1C(=O)CC[C@H]2CN(c3cnc4ccccc4n3)CC[C@H]21` | 7.081% | -1.447% | -101.4% | 15.83% | 0% |
| 31 | `CN1CC(c2cc(O)nc(NCc3ccc(Cl)cc3)n2)CC1=O` (centres undefined) | 1.961% | - | 1.66% | 11.46% | 10.64% |
| 32 | `CN(C)c1cc(CNC(=O)c2cccnc2O)ccn1` | 4.961% | -3.762% | -45.26% | 9.735% | 6.122% |
| 33 | `O=C(C[C@@H]1COC[C@H]2CN(C(=O)c3cccnc3)C[C@@H]12)N1CCCC1` | 4.039% | 4.064% | -2.552% | 26.6% | 13.07% |
| 34 | `CN(C)C(=O)CN1CCN(C(=O)Cc2csc(-c3ncccn3)n2)CC1` | 0.266% | -1.572% | 13.53% | 5.6% | 1.901% |
| 35 | `Cc1n[nH]c(SCC(=O)NC(c2ccccn2)C(C)C)n1` (centres undefined) | 1.966% | -2.051% | -5.805% | 12.9% | 1.235% |
| 36 | `CC(C)OC(=O)CNC(=O)Nc1ccc(-c2nc(C(C)C)no2)cc1` | 2.427% | -7.059% | -5.094% | -16.87% | 3.867% |
| 37 | `N#CCCN(CCC#N)C(=O)CN1CCCC1Cc1cccc(F)c1` (centres undefined) | -4.348% | 3.752% | -2.556% | 17.31% | 1.604% |
| 38 | `CCNc1ncc(CN(CCN(C)C)Cc2ccc(C)s2)cn1` | -18.31% | -3.445% | -5.092% | 12.82% | 1.685% |
| 39 | `CC(C)C(NC(=O)NCC1(CO)CC1)c1nnc2n1CCC2` (centres undefined) | 95.86% & 8.466% | 2.439% | -1.812% | 15.38% | 0.5348% |

Once more, the final 4:

| compound | CoaBC | MtTrpRS | ClpP1P2 | LiHisRS | TcHisRS |
|---|---|---|---|---|---|
| `CC(C)OC(=O)CNC(=O)Nc1ccc(-c2nc(C(C)C)no2)cc1` | 2.427% | -7.059% | -5.094% | -16.87% | 3.867% |
| `N#CCCN(CCC#N)C(=O)CN1CCCC1Cc1cccc(F)c1` (centres undefined) | -4.348% | 3.752% | -2.556% | 17.31% | 1.604% |
| `CCNc1ncc(CN(CCN(C)C)Cc2ccc(C)s2)cn1` | -18.31% | -3.445% | -5.092% | 12.82% | 1.685% |
| `CC(C)C(NC(=O)NCC1(CO)CC1)c1nnc2n1CCC2` (centres undefined) | 95.86% & 8.466% | 2.439% | -1.812% | 15.38% | 0.5348% |

The values are deposited in ChEMBL (CHEMBL3988442, “University of Dundee, Small-Polar-MMV Screening Library” (2021)).